This is an account of results in article PMC3908380.

By UniProt entry, the sequences of proteins in these tests, tags left out.
UniProt P92177: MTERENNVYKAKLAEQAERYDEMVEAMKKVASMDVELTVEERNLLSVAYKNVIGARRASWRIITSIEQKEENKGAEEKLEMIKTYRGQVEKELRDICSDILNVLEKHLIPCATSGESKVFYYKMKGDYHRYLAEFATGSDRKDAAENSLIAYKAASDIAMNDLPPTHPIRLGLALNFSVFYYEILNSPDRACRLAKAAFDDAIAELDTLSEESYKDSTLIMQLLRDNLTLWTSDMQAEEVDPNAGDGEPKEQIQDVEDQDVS

What all share (test): affinity purification with mass spectrometry; TAP/MS of the Drosophila Insulin pathway dataset: TAP-tagged bait pulled down via its tag from cell lysates, peptides identified by MS, spectral counts in replicates; time points 0, 10 and 30 minutes; negative control purifications; bait-prey pairs scored as significant by PPIRank (and SAINT)
The target in assay [1] is T1, chico (Drosophila Melanogaster) (UniProt Q9XTN2).
T1 sequence: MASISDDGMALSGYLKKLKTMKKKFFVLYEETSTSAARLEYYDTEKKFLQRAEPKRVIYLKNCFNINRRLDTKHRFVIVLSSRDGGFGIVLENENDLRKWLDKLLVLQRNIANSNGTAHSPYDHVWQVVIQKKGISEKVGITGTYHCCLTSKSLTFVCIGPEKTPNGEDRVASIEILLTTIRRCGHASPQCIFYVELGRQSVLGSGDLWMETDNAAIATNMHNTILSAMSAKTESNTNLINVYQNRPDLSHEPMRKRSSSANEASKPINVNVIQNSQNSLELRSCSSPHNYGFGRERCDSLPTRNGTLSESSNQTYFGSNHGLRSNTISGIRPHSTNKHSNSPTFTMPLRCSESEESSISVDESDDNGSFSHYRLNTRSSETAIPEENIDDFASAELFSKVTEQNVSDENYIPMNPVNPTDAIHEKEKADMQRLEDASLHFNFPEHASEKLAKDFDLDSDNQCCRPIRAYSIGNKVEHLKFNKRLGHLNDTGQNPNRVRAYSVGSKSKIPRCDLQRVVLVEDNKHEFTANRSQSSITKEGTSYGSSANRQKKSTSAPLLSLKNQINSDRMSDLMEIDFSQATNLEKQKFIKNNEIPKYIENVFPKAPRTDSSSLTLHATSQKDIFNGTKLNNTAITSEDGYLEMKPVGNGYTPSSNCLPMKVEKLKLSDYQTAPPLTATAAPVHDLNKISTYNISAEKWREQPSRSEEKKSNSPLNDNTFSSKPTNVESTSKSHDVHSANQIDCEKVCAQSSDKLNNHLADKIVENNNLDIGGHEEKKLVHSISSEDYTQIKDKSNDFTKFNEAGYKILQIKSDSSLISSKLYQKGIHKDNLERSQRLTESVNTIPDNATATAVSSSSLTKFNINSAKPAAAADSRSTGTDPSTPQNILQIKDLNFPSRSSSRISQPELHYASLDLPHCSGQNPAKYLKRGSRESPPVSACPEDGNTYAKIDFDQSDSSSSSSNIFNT

In assay [2] the target is T2, Pi3K92E (Drosophila Melanogaster) (UniProt P91634).
T2 sequence: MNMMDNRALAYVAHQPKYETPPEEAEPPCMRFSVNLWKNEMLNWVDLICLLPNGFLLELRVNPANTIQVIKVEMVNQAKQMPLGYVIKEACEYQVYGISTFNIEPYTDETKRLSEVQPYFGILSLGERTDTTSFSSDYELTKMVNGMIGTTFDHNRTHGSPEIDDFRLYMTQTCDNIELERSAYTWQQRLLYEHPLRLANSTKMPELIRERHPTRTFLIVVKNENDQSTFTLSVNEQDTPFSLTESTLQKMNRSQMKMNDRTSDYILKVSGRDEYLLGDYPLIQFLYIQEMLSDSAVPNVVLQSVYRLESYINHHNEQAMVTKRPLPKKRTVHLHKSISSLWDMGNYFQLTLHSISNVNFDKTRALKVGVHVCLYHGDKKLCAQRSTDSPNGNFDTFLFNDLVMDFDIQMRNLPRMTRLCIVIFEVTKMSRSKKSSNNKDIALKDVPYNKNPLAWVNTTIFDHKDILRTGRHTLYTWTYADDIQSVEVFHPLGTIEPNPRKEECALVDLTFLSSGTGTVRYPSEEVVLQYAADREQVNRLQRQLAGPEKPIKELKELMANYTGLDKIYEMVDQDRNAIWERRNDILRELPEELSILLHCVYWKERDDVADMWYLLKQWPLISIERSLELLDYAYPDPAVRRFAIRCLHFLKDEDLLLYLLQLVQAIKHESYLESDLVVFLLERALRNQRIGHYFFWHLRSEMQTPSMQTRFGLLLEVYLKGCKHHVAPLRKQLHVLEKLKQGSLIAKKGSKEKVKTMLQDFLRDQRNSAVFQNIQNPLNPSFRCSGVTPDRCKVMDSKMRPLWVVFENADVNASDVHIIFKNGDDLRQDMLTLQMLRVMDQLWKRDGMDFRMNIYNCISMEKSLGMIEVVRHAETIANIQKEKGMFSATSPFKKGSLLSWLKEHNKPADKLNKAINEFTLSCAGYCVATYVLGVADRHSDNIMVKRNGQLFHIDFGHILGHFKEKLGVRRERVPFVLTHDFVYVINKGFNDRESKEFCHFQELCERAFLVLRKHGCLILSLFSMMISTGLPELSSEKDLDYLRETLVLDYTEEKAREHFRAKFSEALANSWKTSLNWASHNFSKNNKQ

Assay [3] addresses T3, Thor (Drosophila Melanogaster) (UniProt Q9XZ56).
T3 sequence: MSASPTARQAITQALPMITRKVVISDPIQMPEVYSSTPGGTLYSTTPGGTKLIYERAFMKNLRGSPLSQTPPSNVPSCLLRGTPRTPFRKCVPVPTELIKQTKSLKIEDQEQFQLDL

The target of assay [4] is Pi3K21B (Drosophila Melanogaster).

No constants are given. Whether binding was seen depends on the method and setting. Binding seen in cells or lysates may run through a third protein. Here binding means that the protein was enriched with, or labelled near, the bait; the list need not be complete.

On to “14-3-3epsilon (from UniProt P92177 1-262)”, for which the binding entry in assay [1] was “binds”.
For Pi3K21B (Drosophila Melanogaster), the binding entry in assay [2] and in assay [1] was “binds” throughout.

B1: InR (receptor, UniProt P09208 1086-2144)
chain: DVALEPELDDVEGSVLLRHVRSITDDTDAFFEKDDENTYKDEEDLSSNKQFYEVFAKELPPNQTHFVFEKLRHFTRYAIFVVACREEIPSEKLRDTSFKKSLCSDYDTVFQTTKRKKFADIVMDLKVDLEHANNTESPVRVRWTPPVDPNGEIVTYEVAYKLQKPDQVEEKKCIPAADFNQTAGYLIKLNEGLYSFRVRANSIAGYGDFTEVEHIKVEPPPSYAKVFFWLLGIGLAFLIVSLFGYVCYLHKRKVPSNDLHMNTEVNPFYASMQYIPDDWEVLRENIIQLAPLGQGSFGMVYEGILKSFPPNGVDRECAIKTVNENATDRERTNFLSEASVMKEFDTYHVVRLLGVCSRGQPALVVMELMKKGDLKSYLRAHRPEERDEAMMTYLNRIGVTGNVQPPTYGRIYQMAIEIADGMAYLAAKKFVHRDLAARNCMVADDLTVKIGDFGMTRDIYETDYYRKGTKGLLPVRWMPPESLRDGVYSSASDVFSFGVVLWEMATLAAQPYQGLSNEQVLRYVIDGGVMERPENCPDFLHKLMQRCWHHRSSARPSFLDIIAYLEPQCPNSQFKEVSFYHSEAGLQHREKERKERNQLDAFAAVPLDQDLQDREQQEDATTPLRMGDYQQNSSLDQPPESPIAMVDDQGSHLPFSLPSGFIASSTPDGQTVMATAFQNIPAAQGDISATYVVPDADALDGDRGYEIYDPSPKCAELPTSRSGSTGGGKLSGEQHLLPRKGRQPTIMSSSMPDDVIGGSSLQPSTASAGSSNASSHTGRPSLKKTVADSVRNKANFINRHLFNHKRTGSNASHKSNASNAPSTSSNTNLTSHPVAMGNLGTIESGGSGSAGSYTGTPRFYTPSATPGGGSGMAISDNPNYRLLDESIASEQATILTTSSPNPNYEMMHPPTSLVSTNPNYMPMNETPVQMAGVTISHNPNYQPMQAPLNARQSQSSSDEDNEQEEDDEDEDDDVDDEHVEHIKMERMPLSRPRQRALPSKTQPPRSRSVSQTRKSPTNPNSGIGATGAGNRSNLLKENWLRPASTPRPPPPNGFIGREA
Take B1: the binding result in assay [1] is “binds”.

B2: eIF-4E (protein, UniProt P48598 1-259)
chain: MQSDFHRMKNFANPKSMFKTSAPSTEQGRPEPPTSAAAPAEAKDVKPKEDPQETGEPAGNTATTTAPAGDDAVRTEHLYKHPLMNVWTLWYLENDRSKSWEDMQNEITSFDTVEDFWSLYNHIKPPSEIKLGSDYSLFKKNIRPMWEDAANKQGGRWVITLNKSSKTDLDNLWLDVLLCLIGEAFDHSDQICGAVINIRGKSNKISIWTADGNNEEAALEIGHKLRDALRLGRNNSLQYQLHKDTMVKQGSNVKSIYTL
Turning to B2, the binding result in assay [3] is reported as “binds”.

B3: Pi3K92E (enzyme, UniProt P91634 1-1088)
chain: T2 sequence
B3: the binding result in assay [4] is given as “binds”.

B4: 14-3-3zeta (protein, UniProt P29310 1-248)
chain: MSTVDKEELVQKAKLAEQSERYDDMAQAMKSVTETGVELSNEERNLLSVAYKNVVGARRSSWRVISSIEQKTEASARKQQLAREYRERVEKELREICYEVLGLLDKYLIPKASNPESKVFYLKMKGDYYRYLAEVATGDARNTVVDDSQTAYQDAFDISKGKMQPTHPIRLGLALNFSVFYYEILNSPDKACQLAKQAFDDAIAELDTLNEDSYKDSTLIMQLLRDNLTLWTSDTQGDEAEPQEGGDN
For B4, the binding result in assay [1] is recorded as “binds”.
